17 targets from the supplement of paper PMC6411743 can be followed below.

Amino acid sequences for entries named in this document (tags omitted). A change or cut given only in a name is not applied to a line headed by its entry.
UniProt Q9BSQ5: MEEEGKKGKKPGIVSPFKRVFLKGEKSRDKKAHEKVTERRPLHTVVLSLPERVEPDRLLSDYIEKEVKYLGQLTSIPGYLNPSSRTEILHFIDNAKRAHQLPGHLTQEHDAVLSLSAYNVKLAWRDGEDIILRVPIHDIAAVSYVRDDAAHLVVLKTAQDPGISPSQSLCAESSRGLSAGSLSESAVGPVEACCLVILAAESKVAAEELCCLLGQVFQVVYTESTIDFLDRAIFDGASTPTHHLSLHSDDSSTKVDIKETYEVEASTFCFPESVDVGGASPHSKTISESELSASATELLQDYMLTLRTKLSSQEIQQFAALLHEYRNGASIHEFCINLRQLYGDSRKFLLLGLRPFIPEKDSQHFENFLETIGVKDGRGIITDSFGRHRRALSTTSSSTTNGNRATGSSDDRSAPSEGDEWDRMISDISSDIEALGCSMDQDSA
UniProt Q8IWS0: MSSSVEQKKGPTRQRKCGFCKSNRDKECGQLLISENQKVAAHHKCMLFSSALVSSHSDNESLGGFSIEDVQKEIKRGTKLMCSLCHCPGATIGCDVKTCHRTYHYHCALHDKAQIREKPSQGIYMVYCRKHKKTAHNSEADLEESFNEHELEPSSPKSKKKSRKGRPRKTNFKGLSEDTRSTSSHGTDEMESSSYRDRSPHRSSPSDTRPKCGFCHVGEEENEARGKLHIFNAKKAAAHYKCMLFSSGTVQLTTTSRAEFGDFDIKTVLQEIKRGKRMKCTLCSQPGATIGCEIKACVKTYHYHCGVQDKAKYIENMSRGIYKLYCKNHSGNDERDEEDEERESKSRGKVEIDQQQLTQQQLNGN
UniProt Q7Z7C8, whole entry: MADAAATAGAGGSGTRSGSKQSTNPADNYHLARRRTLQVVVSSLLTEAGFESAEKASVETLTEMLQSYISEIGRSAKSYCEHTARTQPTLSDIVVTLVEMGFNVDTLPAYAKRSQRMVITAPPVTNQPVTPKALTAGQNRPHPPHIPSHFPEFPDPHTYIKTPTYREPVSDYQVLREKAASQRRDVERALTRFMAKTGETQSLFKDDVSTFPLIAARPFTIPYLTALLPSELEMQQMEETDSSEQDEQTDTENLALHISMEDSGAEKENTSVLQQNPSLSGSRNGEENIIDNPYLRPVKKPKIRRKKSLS
UniProt O43314: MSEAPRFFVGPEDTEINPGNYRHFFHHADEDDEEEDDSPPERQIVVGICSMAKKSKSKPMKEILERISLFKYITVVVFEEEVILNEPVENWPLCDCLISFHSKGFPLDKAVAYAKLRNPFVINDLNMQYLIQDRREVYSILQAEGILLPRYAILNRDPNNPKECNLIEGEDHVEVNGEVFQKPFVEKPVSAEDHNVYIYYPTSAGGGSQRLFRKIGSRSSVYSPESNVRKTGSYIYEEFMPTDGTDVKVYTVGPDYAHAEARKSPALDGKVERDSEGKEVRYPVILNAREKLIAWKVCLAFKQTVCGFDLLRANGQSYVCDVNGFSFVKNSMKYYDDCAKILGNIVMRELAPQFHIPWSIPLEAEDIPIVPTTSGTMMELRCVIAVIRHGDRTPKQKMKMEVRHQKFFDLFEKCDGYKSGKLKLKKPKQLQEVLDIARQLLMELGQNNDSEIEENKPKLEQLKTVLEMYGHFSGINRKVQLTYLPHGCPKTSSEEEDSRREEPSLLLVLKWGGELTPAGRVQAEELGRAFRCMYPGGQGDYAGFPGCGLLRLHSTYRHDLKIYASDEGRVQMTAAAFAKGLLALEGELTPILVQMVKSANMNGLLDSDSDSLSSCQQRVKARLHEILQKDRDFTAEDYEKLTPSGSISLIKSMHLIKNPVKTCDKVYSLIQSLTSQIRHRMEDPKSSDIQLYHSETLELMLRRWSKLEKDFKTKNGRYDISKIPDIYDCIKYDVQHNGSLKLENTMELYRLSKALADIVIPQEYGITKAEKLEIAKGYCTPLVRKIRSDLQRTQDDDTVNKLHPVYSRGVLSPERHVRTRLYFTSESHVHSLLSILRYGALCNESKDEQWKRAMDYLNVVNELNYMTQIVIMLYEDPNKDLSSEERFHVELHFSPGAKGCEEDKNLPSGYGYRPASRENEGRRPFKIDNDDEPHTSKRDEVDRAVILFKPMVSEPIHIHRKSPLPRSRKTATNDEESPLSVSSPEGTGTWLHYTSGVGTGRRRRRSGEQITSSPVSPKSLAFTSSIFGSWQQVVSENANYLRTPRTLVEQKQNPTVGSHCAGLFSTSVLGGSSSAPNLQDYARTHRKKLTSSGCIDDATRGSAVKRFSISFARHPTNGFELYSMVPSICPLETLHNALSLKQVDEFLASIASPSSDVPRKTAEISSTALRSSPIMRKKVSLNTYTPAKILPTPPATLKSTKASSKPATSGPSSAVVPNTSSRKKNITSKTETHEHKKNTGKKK
UniProt Q03701: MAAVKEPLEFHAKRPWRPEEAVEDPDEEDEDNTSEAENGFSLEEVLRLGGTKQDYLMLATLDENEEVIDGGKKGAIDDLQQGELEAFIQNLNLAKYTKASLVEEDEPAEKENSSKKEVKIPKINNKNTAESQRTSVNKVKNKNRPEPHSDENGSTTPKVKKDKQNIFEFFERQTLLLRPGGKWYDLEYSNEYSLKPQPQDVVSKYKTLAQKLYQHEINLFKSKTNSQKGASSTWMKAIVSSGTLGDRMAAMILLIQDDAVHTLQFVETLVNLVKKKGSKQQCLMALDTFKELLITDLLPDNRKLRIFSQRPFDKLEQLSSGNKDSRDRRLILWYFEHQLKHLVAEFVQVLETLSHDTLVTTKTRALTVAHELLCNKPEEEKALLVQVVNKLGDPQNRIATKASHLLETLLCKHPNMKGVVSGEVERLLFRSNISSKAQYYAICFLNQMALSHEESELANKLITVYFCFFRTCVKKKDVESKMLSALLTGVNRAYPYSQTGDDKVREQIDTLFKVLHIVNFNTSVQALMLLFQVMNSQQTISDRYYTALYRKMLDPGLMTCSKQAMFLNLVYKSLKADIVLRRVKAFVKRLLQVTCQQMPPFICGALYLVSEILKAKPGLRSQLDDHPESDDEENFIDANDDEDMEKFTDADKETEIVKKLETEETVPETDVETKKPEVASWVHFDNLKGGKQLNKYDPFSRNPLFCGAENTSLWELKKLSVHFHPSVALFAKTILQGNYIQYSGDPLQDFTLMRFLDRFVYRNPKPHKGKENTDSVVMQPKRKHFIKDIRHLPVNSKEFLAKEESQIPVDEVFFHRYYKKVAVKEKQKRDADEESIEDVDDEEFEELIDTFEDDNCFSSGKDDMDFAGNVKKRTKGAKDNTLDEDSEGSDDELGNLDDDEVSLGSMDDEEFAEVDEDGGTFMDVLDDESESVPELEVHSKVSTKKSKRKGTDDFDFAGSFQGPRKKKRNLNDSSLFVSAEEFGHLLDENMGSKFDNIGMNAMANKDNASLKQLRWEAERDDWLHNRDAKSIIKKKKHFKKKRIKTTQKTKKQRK
UniProt Q9P2E9: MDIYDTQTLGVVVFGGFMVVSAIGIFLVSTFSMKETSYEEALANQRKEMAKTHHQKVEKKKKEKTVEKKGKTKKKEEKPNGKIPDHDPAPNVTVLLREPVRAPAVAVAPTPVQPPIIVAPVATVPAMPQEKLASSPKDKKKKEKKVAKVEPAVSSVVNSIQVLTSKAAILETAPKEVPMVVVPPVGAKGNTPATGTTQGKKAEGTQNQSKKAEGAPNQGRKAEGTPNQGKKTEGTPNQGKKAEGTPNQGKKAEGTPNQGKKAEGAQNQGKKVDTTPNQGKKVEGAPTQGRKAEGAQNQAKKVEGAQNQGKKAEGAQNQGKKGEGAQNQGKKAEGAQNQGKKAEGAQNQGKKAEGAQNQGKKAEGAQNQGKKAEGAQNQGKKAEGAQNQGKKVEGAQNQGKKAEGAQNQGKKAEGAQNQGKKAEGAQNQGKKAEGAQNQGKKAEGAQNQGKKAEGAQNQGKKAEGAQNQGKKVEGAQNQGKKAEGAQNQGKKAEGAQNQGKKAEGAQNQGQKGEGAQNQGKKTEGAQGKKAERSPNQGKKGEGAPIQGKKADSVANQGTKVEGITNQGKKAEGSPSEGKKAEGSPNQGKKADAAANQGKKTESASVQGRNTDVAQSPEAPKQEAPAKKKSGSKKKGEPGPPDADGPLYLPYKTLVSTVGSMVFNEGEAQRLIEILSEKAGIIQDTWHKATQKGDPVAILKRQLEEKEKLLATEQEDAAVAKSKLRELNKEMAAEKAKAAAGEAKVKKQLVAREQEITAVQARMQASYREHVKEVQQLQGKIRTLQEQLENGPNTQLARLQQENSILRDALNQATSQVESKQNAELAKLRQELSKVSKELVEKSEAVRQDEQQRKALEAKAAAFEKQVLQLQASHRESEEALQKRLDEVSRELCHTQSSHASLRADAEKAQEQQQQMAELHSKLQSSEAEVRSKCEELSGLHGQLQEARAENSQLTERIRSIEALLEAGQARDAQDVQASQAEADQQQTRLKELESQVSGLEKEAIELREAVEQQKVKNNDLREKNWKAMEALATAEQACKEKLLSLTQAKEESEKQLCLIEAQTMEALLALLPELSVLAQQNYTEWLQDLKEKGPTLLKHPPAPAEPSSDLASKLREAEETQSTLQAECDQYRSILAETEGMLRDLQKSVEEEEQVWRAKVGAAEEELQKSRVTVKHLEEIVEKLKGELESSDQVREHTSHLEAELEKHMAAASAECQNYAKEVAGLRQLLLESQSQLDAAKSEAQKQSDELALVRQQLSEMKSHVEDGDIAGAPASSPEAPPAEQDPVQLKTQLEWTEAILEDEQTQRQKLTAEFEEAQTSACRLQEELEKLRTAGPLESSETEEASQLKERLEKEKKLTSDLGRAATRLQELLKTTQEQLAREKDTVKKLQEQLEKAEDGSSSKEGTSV
UniProt Q2M2I8: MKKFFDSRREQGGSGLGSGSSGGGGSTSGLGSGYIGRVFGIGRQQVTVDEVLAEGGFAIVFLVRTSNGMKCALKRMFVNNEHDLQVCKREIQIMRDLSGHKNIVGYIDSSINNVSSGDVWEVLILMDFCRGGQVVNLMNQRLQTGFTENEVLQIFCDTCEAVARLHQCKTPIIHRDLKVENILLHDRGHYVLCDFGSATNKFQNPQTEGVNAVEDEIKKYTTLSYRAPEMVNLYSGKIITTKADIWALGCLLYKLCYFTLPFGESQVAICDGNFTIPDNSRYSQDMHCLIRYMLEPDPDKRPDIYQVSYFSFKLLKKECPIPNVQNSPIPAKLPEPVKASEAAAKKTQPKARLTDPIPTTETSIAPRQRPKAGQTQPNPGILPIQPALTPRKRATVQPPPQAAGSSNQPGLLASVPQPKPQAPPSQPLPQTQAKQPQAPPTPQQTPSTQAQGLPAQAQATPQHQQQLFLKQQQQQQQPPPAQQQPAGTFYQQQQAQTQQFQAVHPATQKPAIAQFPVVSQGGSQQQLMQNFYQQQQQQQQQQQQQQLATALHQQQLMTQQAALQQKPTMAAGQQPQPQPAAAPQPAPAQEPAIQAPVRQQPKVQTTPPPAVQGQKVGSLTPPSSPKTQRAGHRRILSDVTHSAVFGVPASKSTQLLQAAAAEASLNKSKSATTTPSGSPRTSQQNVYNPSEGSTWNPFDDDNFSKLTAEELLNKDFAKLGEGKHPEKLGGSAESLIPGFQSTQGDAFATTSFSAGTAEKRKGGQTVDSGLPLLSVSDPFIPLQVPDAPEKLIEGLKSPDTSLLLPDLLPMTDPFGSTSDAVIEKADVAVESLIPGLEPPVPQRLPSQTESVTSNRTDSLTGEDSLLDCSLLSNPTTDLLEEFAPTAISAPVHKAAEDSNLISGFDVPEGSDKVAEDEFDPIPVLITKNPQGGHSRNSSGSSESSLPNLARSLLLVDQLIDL
UniProt O43681: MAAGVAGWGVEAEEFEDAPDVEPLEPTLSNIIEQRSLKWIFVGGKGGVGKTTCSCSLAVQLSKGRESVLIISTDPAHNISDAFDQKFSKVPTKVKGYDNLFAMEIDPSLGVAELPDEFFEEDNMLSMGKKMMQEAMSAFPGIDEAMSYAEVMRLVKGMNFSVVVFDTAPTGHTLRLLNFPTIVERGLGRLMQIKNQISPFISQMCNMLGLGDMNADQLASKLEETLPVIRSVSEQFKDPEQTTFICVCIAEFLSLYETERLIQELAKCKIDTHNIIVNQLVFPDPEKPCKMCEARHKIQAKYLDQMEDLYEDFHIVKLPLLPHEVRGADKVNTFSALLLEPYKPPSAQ
UniProt Q9Y3A5: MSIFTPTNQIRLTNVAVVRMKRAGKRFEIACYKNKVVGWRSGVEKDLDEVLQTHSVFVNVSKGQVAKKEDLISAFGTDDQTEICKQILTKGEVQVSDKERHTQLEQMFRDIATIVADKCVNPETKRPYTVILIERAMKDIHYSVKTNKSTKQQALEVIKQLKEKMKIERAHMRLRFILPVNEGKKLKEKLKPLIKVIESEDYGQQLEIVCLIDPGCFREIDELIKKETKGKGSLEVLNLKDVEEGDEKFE

± gives the standard deviation of the averaged measurements. The entries are a selection whose mix differs from that of the whole data set.

Compound in the test: Nc1ncnc2c1ncn2[C@@H]1O[C@H](COP(=O)(O)OP(=O)(O)NP(=O)(O)O)[C@@H](O)[C@H]1O [adenylyl imidodiphosphate]
As to the kind of experiment: NP40-soluble protein abundance relative to vehicle (solubility fold change) (ratio); higher = more soluble protein in presence of AMP-PNP. The gist of the method:
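Crude Jurkat lysate, prepared by Dounce homogenisation, was exposed to eight concentrations from 0.1 to 10 mM for 10 min at room temperature and then 3 min at 37 °C. Solubilisation used 0.8% NP40 with benzonase for 60 min at 4 °C, followed by ultracentrifugation and TMT labelling of the supernatant for LC-MS/MS. After vsn normalisation of intensities, each value is the fold change against the detergent-processed vehicle within each replicate, across three independent experiments.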

Take “A0A0C4DFY0|Q14242 and related entries (UniProt Q14242)”: the NP40-soluble protein abundance stood at 0.973 ± 0.046 (concentration: 1mM); 0.985 ± 0.06 (concentration: 2mM); 0.965 ± 0.045 (concentration: 4mM); 0.958 ± 0.055 (concentration: 6mM); 0.9452 ± 0.0083 (concentration: 8mM); 0.923 ± 0.044 (concentration: 10mM).

As to “A0A0A0MT72|Q9BSQ5 and related entries (UniProt Q9BSQ5)”, the NP40-soluble protein abundance by setting is: (concentration: 1mM) 0.981 ± 0.017; (concentration: 2mM) 0.978 ± 0.034; (concentration: 4mM) 0.9492 ± 0.0069; (concentration: 6mM) 0.954 ± 0.016; (concentration: 8mM) 0.978 ± 0.022; (concentration: 10mM) 0.96 ± 0.028.

As to A0A0C4DGT4|Q643R3 (UniProt Q643R3), the NP40-soluble protein abundance was 0.998 ± 0.03 (concentration: 1mM); 1 ± 0.05 (concentration: 2mM); 1.03 ± 0.045 (concentration: 4mM); 1.01 ± 0.035 (concentration: 6mM); 1.01 ± 0.016 (concentration: 8mM); 0.992 ± 0.029 (concentration: 10mM).

For the target “A0A0D9SGE8|Q8IWS0 and related entries (UniProt Q8IWS0)”, the NP40-soluble protein abundance by setting is: (concentration: 1mM) 1.019 ± 0.0064; (concentration: 2mM) 1.05 ± 0.05; (concentration: 4mM) 1.093 ± 0.01; (concentration: 6mM) 1.13 ± 0.041; (concentration: 8mM) 1.15 ± 0.065; (concentration: 10mM) 1.18 ± 0.051.

As to “A0A0C4DGQ5|K7EIV0 and related entries (UniProt P04632)”, the NP40-soluble protein abundance (concentration: 1mM) is 1.04 ± 0.036; the NP40-soluble protein abundance (concentration: 2mM) came to 1.05 ± 0.041; the NP40-soluble protein abundance (concentration: 4mM) is 1.01 ± 0.022; the NP40-soluble protein abundance (concentration: 6mM) worked out at 1.02 ± 0.035; the NP40-soluble protein abundance (concentration: 8mM) stood at 1.02 ± 0.024; the NP40-soluble protein abundance (concentration: 10mM) is 1.03 ± 0.025.

Take “A0A0A6YYA7|Q12851 and related entries (UniProt Q12851)”: the NP40-soluble protein abundance reads like this: (concentration: 1mM) 0.971 ± 0.02; (concentration: 2mM) 0.953 ± 0.067; (concentration: 4mM) 0.956 ± 0.038; (concentration: 6mM) 0.961 ± 0.049; (concentration: 8mM) 0.916 ± 0.047; (concentration: 10mM) 0.943 ± 0.04.

Take “A0A0A0MRR3|Q7Z7C8 and related entries (UniProt Q7Z7C8)”: the NP40-soluble protein abundance is, setting by setting: (concentration: 1mM) 1.02 ± 0.011; (concentration: 2mM) 1.1 ± 0.09; (concentration: 4mM) 1.04 ± 0.025; (concentration: 6mM) 1 ± 0.017; (concentration: 8mM) 1.01 ± 0.039; (concentration: 10mM) 1.03 ± 0.045.

Consider “A0A087WZV0|O43314 and related entries (UniProt O43314)”, for which the NP40-soluble protein abundance (concentration: 1mM) came out at 1.03 ± 0.044; the NP40-soluble protein abundance (concentration: 2mM) came out at 1.03 ± 0.039; the NP40-soluble protein abundance (concentration: 4mM) is 1.07 ± 0.06; the NP40-soluble protein abundance (concentration: 6mM) is 1.03 ± 0.039; the NP40-soluble protein abundance (concentration: 8mM) came to 1.07 ± 0.028; the NP40-soluble protein abundance (concentration: 10mM) worked out at 1.05 ± 0.048.

A0A087WXI0 (UniProt Q7Z6P3): the NP40-soluble protein abundance (concentration: 1mM) was 1.03 ± 0.059; the NP40-soluble protein abundance (concentration: 2mM) worked out at 1.05 ± 0.021; the NP40-soluble protein abundance (concentration: 4mM) was 1.06 ± 0.041; the NP40-soluble protein abundance (concentration: 6mM) worked out at 1.02 ± 0.052; the NP40-soluble protein abundance (concentration: 8mM) is 1.03 ± 0.037; the NP40-soluble protein abundance (concentration: 10mM) was determined as 1.04 ± 0.035.

For the target A0A087X1N2|Q03701 (UniProt Q03701), the NP40-soluble protein abundance worked out at 1.02 ± 0.023 (concentration: 1mM); 1.04 ± 0.05 (concentration: 2mM); 1.03 ± 0.03 (concentration: 4mM); 1.05 ± 0.04 (concentration: 6mM); 1.06 ± 0.069 (concentration: 8mM); 1.09 ± 0.12 (concentration: 10mM).

Turning to A0A0A0MRV0|Q9P2E9 (UniProt Q9P2E9), the NP40-soluble protein abundance (concentration: 1mM) turned out to be 1.01 ± 0.048; the NP40-soluble protein abundance (concentration: 2mM) is 1.11 ± 0.075; the NP40-soluble protein abundance (concentration: 4mM) came to 0.977 ± 0.046; the NP40-soluble protein abundance (concentration: 6mM) worked out at 0.983 ± 0.033; the NP40-soluble protein abundance (concentration: 8mM) is 0.953 ± 0.024; the NP40-soluble protein abundance (concentration: 10mM) is 0.97 ± 0.029.

For the target “A0A096LP25|Q2M2I8 and related entries (UniProt Q2M2I8)”, the NP40-soluble protein abundance runs as follows: (concentration: 1mM) 1.07 ± 0.02; (concentration: 2mM) 1.11 ± 0.041; (concentration: 4mM) 1.11 ± 0.026; (concentration: 6mM) 1.09 ± 0.024; (concentration: 8mM) 1.08 ± 0.02; (concentration: 10mM) 1.11 ± 0.012.

On to “A0A0C4DFL8|F5GX28 and related entries (UniProt O94953)”, for which the NP40-soluble protein abundance was 1.01 ± 0.023 (concentration: 1mM); 1.02 ± 0.024 (concentration: 2mM); 1.04 ± 0.024 (concentration: 4mM); 1.01 ± 0.041 (concentration: 6mM); 1.01 ± 0.042 (concentration: 8mM); 1.01 ± 0.045 (concentration: 10mM).

In the case of A0A087WXS7|O43681 (UniProt O43681), the NP40-soluble protein abundance is, setting by setting: (concentration: 1mM) 0.946 ± 0.025; (concentration: 2mM) 0.913 ± 0.025; (concentration: 4mM) 0.953 ± 0.027; (concentration: 6mM) 0.963 ± 0.034; (concentration: 8mM) 0.961 ± 0.023; (concentration: 10mM) 0.941 ± 0.045.

As to “A0A0C3SFZ9|M0QZI3 and related entries (UniProt O14526)”, the NP40-soluble protein abundance turned out to be 1.01 ± 0.014 (concentration: 1mM); 1 ± 0.013 (concentration: 2mM); 0.9951 ± 0.0053 (concentration: 4mM); 0.982 ± 0.031 (concentration: 6mM); 0.965 ± 0.039 (concentration: 8mM); 0.948 ± 0.018 (concentration: 10mM).

With “A0A0U1RQG6|A0A0U1RQM7|A0A0U1RR06|C9JYH8 and related entries (UniProt Q9Y484)”, the NP40-soluble protein abundance came out at 0.986 ± 0.022 (concentration: 1mM); 1.01 ± 0.014 (concentration: 2mM); 0.995 ± 0.068 (concentration: 4mM); 0.986 ± 0.018 (concentration: 6mM); 0.981 ± 0.013 (concentration: 8mM); 0.9495 ± 0.0073 (concentration: 10mM).

Consider A0A087X020|Q9Y3A5 (UniProt Q9Y3A5), for which the NP40-soluble protein abundance by setting is: (concentration: 1mM) 1 ± 0.03; (concentration: 2mM) 0.964 ± 0.043; (concentration: 4mM) 1.01 ± 0.028; (concentration: 6mM) 0.983 ± 0.012; (concentration: 8mM) 1.03 ± 0.018; (concentration: 10mM) 1.02 ± 0.026.
